According to PMC10485894, “Corticosteroids as Selective and Effective Modulators of Glycine Receptors” (ACS Chemical Neuroscience, 2023):

Tested on: GABA-A receptors (GABAAR)
Conditions: 2 μM GABA, peak amplitude

C[C@]12CC[C@@H](O)C[C@@H]1CC[C@@H]1[C@@H]2[C@@H](O)C[C@]2(C)[C@@H](C(=O)CO)CC[C@@H]12 [3α5α-CORT, 3α,11β,21-Trihydroxy-5α-pregnan-20-one]
EC50: 23 ± 8 µM

C[C@]12CC[C@@H](O)C[C@H]1CC[C@@H]1[C@@H]2[C@@H](O)C[C@]2(C)[C@@H](C(=O)CO)CC[C@@H]12 [3α5β-CORT, 3α,11β,21-Trihydroxy-5β-pregnan-20-one]
EC50: 18 ± 7 µM
